The list shows a part of the results.
Columns and labels:
Experiment in all cases: log2 fold change, soluble protein after heating vs DMSO (PISA); higher = thermal stabilisation; K562 cells, 10 uM, 30 min; active = over 0.2 and 3.5 SD of the protein, either way, in both replicates (recomputed)
erlotinib = compound: C#Cc1cccc(Nc2ncnc3cc(OCCOC)c(OCCOC)cc23)c1 [erlotinib]
Summary of the method: (§1)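 Soluble protein was defined as the supernatant after 21,000xg for 90 min. It came from K562 cells at 2×10^6 cells/mL given 10 μM compound for 30 min, heated in aliquots for 3 min across 48°C-58°C, pooled, and extracted in PBS with 0.5% NP-40 at 4°C, and was quantified by TMTpro 16plex LC-MS/MS with equalised channel sums. Thermal stability against control samples, from duplicates, is reported as log2 fold change.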

The chains behind the UniProt entries cited, without tags or fusion partners. Where a name states a change or a piece, a line headed by the entry shows the natural chain unless it says otherwise.
UniProt O96011, whole entry, looked up, stated change not applied: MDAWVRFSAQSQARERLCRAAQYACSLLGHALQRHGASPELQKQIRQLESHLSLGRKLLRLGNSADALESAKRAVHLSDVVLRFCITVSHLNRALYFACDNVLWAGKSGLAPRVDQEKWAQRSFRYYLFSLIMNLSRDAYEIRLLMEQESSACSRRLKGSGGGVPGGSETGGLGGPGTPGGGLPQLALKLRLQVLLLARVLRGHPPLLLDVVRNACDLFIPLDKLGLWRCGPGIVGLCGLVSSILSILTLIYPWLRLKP
UniProt O00623: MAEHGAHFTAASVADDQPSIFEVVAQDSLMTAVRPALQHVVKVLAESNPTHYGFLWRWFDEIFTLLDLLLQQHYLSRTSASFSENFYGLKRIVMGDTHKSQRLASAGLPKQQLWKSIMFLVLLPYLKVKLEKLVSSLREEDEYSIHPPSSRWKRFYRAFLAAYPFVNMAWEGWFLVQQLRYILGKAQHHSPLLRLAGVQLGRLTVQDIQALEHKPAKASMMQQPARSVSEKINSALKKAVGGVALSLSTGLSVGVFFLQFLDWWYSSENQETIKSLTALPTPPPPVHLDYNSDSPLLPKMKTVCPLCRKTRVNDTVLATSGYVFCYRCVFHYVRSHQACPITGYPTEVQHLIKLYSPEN
UniProt Q9UHG3: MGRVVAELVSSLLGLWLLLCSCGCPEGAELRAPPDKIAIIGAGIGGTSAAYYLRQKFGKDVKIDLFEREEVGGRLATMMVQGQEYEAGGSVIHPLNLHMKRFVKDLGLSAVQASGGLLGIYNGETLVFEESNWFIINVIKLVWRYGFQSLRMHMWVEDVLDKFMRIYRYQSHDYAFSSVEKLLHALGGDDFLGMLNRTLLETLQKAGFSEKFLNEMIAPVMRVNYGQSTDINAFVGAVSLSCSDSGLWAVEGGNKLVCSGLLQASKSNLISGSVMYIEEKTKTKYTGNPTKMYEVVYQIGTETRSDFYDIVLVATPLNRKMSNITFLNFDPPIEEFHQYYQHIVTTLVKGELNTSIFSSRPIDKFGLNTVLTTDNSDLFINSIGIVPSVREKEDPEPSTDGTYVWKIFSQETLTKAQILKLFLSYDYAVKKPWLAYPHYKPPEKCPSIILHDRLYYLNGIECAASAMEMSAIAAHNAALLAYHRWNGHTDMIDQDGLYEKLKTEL
UniProt P08559, whole entry, looked up: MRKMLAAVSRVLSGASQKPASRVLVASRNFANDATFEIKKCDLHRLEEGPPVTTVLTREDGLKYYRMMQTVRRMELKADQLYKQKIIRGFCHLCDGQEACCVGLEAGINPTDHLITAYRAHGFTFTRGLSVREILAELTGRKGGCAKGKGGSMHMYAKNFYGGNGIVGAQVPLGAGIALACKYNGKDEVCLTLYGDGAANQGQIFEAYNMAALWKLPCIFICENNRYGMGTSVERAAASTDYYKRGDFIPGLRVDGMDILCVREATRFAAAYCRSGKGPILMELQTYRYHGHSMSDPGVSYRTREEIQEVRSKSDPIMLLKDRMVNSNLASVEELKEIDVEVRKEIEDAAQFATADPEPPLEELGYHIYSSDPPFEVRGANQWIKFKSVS
UniProt P0DJ07: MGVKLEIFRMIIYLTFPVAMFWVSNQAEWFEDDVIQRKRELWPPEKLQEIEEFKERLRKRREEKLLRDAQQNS
UniProt P35227: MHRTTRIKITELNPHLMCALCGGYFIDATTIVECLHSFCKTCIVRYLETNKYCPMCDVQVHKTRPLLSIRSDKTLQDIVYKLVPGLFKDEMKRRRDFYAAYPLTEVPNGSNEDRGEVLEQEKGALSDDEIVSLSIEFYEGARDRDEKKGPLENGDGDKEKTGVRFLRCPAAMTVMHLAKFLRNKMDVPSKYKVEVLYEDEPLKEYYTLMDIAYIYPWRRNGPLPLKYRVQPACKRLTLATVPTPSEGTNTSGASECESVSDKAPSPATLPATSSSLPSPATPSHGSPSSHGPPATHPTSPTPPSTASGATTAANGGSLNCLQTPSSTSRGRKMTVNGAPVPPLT
UniProt Q13371: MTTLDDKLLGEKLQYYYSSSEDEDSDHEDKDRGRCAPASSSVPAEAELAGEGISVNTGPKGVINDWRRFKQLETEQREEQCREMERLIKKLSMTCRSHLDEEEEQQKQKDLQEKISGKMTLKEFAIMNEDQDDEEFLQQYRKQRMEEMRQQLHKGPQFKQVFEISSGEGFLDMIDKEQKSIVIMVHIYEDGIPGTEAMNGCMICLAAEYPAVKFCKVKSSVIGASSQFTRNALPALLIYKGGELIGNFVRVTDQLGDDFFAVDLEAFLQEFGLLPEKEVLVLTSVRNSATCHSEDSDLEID
UniProt Q8NCN5: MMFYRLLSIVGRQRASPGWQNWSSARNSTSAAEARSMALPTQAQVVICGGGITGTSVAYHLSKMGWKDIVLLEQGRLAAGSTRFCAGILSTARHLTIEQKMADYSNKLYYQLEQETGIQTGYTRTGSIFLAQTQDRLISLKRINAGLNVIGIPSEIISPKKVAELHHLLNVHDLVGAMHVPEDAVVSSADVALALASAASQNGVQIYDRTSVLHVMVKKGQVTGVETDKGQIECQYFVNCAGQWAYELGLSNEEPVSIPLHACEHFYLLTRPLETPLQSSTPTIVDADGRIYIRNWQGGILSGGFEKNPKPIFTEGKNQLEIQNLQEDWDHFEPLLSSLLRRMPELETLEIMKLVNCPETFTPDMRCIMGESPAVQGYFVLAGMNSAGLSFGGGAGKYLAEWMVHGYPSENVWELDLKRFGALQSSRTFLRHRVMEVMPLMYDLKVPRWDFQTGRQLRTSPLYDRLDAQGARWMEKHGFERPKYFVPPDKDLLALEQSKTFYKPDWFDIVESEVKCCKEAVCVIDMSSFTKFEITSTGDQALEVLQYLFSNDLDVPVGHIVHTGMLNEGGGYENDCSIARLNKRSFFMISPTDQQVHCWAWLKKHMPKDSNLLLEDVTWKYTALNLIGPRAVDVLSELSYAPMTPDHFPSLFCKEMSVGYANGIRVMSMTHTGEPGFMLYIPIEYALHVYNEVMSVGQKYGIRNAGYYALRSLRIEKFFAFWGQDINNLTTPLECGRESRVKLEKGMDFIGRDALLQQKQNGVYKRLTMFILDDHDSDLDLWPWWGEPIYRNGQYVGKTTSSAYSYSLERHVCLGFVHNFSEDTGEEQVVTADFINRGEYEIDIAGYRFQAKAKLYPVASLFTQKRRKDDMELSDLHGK
UniProt Q9NVE7: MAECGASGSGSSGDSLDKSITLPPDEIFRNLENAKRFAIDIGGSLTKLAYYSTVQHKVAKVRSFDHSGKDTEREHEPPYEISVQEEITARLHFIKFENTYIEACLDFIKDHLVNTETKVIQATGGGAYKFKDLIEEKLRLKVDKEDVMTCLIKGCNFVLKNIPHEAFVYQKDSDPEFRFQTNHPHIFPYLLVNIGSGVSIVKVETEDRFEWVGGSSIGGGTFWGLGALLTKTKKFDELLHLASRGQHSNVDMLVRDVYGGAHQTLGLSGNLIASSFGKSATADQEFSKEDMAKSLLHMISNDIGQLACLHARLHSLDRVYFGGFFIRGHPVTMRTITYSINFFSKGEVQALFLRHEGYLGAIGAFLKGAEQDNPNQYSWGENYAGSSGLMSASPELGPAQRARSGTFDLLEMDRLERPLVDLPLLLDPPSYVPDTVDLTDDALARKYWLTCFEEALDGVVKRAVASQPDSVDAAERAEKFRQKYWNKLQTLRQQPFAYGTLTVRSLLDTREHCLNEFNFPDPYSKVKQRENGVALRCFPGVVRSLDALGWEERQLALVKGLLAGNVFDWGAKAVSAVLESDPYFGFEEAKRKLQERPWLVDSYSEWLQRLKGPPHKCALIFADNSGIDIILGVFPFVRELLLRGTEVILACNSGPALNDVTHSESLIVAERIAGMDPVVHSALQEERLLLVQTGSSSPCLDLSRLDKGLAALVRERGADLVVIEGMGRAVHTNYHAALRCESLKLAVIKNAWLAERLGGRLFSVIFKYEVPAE
UniProt Q9H2J4: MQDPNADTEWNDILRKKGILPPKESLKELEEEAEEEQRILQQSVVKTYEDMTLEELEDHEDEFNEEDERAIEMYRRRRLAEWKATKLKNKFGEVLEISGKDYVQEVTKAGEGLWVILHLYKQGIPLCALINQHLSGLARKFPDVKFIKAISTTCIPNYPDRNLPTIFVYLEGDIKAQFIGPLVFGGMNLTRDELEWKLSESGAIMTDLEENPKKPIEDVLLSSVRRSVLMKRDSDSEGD
UniProt P09874, whole entry, looked up: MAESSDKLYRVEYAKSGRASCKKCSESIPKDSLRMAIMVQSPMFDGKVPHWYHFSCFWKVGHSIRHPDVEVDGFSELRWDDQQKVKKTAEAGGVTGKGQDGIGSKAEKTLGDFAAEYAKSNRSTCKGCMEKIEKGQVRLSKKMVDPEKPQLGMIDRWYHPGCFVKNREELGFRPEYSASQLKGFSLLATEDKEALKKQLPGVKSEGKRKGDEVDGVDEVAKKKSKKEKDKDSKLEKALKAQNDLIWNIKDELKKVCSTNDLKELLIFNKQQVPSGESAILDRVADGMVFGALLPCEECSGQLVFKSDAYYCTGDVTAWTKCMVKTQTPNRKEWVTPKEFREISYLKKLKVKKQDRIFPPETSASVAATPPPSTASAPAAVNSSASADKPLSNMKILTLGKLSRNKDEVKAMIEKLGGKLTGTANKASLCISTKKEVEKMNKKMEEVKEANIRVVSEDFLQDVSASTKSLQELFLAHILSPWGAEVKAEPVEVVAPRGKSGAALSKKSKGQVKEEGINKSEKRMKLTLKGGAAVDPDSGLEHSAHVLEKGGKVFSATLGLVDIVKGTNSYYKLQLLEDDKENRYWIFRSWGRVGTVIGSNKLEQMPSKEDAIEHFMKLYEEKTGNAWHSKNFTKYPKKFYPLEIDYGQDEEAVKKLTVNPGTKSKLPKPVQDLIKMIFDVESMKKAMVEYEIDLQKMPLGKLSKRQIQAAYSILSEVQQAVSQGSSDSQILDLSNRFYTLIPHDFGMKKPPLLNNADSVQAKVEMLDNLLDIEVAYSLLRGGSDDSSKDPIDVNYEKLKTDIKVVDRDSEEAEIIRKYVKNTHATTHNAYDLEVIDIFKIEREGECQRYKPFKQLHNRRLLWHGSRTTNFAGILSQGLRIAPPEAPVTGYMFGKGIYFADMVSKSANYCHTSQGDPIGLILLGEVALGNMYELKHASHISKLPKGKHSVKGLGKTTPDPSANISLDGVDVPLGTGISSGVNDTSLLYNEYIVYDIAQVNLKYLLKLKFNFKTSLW
UniProt Q9NTI5: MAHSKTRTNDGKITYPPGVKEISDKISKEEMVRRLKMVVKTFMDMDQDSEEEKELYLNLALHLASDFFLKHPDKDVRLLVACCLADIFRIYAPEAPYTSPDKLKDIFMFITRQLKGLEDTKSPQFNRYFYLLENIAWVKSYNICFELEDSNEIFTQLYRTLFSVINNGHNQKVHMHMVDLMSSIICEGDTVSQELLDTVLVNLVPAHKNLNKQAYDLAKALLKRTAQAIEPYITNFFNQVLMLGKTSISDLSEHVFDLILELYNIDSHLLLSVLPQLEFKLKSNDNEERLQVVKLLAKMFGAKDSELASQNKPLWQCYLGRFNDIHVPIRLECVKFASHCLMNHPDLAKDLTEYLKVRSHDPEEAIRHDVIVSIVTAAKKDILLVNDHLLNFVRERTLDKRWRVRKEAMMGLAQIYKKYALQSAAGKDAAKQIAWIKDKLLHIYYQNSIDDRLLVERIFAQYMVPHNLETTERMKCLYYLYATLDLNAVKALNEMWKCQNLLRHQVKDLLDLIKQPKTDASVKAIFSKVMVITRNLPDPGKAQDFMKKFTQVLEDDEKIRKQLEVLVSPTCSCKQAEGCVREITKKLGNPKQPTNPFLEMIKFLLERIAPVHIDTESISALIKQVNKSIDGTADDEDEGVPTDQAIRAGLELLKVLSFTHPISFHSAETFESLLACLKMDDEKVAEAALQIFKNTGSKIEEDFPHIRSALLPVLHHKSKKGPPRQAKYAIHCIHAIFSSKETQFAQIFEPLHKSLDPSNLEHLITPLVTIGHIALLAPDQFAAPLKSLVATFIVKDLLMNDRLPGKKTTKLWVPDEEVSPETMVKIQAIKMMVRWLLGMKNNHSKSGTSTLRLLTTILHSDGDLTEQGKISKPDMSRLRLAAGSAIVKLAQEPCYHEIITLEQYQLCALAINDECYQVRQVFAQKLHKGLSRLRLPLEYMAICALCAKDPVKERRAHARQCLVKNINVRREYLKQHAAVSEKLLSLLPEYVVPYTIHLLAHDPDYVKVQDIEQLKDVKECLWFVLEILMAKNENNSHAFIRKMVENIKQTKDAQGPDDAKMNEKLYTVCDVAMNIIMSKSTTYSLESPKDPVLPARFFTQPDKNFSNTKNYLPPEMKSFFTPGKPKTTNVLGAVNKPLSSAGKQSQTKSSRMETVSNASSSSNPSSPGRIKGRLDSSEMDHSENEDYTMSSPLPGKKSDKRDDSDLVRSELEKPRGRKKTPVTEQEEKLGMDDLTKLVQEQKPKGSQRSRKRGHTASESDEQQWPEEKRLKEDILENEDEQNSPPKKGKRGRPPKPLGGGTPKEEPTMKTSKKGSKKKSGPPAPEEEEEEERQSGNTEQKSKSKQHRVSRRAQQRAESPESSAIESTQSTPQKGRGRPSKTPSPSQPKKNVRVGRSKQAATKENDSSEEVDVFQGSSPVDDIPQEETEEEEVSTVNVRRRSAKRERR

[1] = compound: C/C(=N\NC(=O)C1=CC(=CC=C1)S(=O)(=O)N2CCOCC2)/C3=C(C=CC(=C3)Cl)O
Summary of the method: as §1

[2] = compound: C1=CC(=C(C=C1Cl)C2=NC3=NC=CN=C3C(=N2)NC4=CC=NC=C4)F
Summary of the method: as §1

[3] = compound: C1=CC(=CC=C1C2=NC3=C(N2)C=C(C=C3)C(=O)N)OC4=CC=C(C=C4)Cl
Summary of the method: as §1

[4] = compound: C1=CC2=C(C=CC(=C2)/C=C\3/C(=O)NC(=NCC4=CC=CS4)S3)N=C1
Summary of the method: as §1

[5] = compound: C1=CC2=NC=CN=C2C=C1/C=C/3\C(=O)NC(=O)S3
Summary of the method: as §1

[6] = compound: C1=CC=C(C=C1)C2=NC(=C(N2)C3=CC=NC=C3)C4=CC(=C(C=C4)Cl)O
Summary of the method: as §1

[7] = compound: C1=CC=C2C(=C1)C3=NNC4=CC=CC(=C43)C2=O
Summary of the method: as §1

[8] = compound: C1CCN(C1)C(=O)NC2=CC=CC(=C2)NC3=NC=C(C(=N3)NCCC4=CN=CN4)Br
Summary of the method: as §1

[9] = compound: C1CN(CCC1(CC2=CC=C(C=C2)Cl)N)C3=NC=NC4=C3C=CN4
Summary of the method: as §1

Row | Target | log2 fold change (erlotinib) | log2 fold change [1] | log2 fold change [2] | log2 fold change [3] | log2 fold change [4] | log2 fold change [5] | log2 fold change [6] | log2 fold change [7] | log2 fold change [8] | log2 fold change [9]
1 | PDSS1 (UniProt Q5T2R2) | inactive: -0.02 | inactive: 0.14 | inactive: 0.25 | inactive: -0.016 | inactive: 0.029 | inactive: -0.008 | inactive: 0.02 | inactive: -0.036 | inactive: -0.036 | inactive: 0.012
2 | PEX11B (UniProt O96011) | inactive: 0.016 | inactive: 0.058 | inactive: 0.162 | inactive: -0.001 | inactive: 0.056 | inactive: 0.087 | inactive: 0.142 | inactive: -0.012 | inactive: -0.097 | inactive: 0.041
3 | PEX12 (UniProt O00623) | inactive: 0.011 | inactive: 0.154 | inactive: 0.045 | inactive: 0.16 | inactive: -0.014 | inactive: -0.115 | inactive: 0.024 | inactive: 0 | inactive: -0.004 | inactive: -0.012
4 | PARN (UniProt O95453) | inactive: 0 | inactive: 0.052 | inactive: 0.08 | inactive: -0.008 | inactive: -0.028 | inactive: 0.034 | inactive: -0.019 | inactive: -0.001 | inactive: -0.02 | inactive: 0.109
5 | PCYOX1 (UniProt Q9UHG3) | inactive: -0.008 | inactive: 0.003 | inactive: 0.076 | inactive: 0.012 | inactive: 0.05 | inactive: 0.032 | inactive: -0.007 | inactive: -0.055 | inactive: 0.006 | inactive: 0.054
6 | PAGE1 (UniProt O75459) | inactive: -0.061 | inactive: 0.03 | inactive: 0.032 | inactive: -0.053 | inactive: -0.088 | inactive: 0.063 | inactive: 0.161 | inactive: -0.029 | inactive: 0.031 | inactive: 0.049
7 | PDLIM1 (UniProt O00151) | inactive: 0.022 | inactive: -0.021 | inactive: 0.069 | inactive: -0.009 | inactive: -0.013 | inactive: 0.014 | inactive: 0 | inactive: -0.009 | inactive: -0.033 | inactive: 0.04
8 | PANK3 (UniProt Q9H999) | inactive: -0.002 | inactive: -0.101 | inactive: 0.017 | inactive: 0.049 | inactive: 0.102 | inactive: -0.045 | inactive: -0.017 | inactive: -0.111 | inactive: -0.031 | inactive: 0.079
9 | PAK1IP1 (UniProt Q9NWT1) | inactive: -0.218 | inactive: -0.218 | inactive: -0.56 | inactive: 0.104 | inactive: -0.094 | inactive: 0.033 | inactive: -0.073 | inactive: 0.002 | inactive: 0.126 | inactive: -0.212
10 | PCNT (UniProt O95613) | inactive: 0.284 | inactive: -0.138 | inactive: -0.095 | inactive: -0.099 | inactive: 0.15 | inactive: -0.023 | inactive: -0.079 | inactive: -0.097 | inactive: 0.065 | inactive: -0.021
11 | PDHA1 isoform 4 (UniProt P08559) | inactive: -0.106 | inactive: -0.124 | inactive: -0.11 | inactive: 0.058 | inactive: -0.036 | inactive: -0.012 | inactive: -0.052 | inactive: 0.111 | inactive: -0.05 | inactive: -0.171
12 | PCBD1 (UniProt P61457) | inactive: 0.034 | inactive: 0.058 | inactive: -0.001 | inactive: 0.002 | inactive: 0.104 | inactive: 0.002 | inactive: 0.021 | inactive: -0.021 | inactive: -0.029 | inactive: 0.018
13 | PET100 (UniProt P0DJ07) | inactive: 0.007 | inactive: 0 | inactive: 0 | inactive: -0.008 | inactive: 0.118 | inactive: 0.018 | inactive: -0.093 | inactive: 0.014 | inactive: -0.02 | inactive: 0.065
14 | PCGF2 (UniProt P35227) | inactive: 0.11 | inactive: 0.037 | inactive: 0.001 | inactive: -0.013 | inactive: 0.177 | inactive: -0.023 | inactive: 0.053 | inactive: -0.002 | inactive: -0.057 | inactive: -0.061
15 | PDXDC1 (UniProt Q6P996) | inactive: -0.033 | inactive: 0.125 | inactive: -0.053 | inactive: -0.077 | inactive: -0.171 | inactive: 0.008 | inactive: -0.155 | inactive: 0.095 | inactive: -0.152 | inactive: -0.2
16 | PAIP2 (UniProt Q9BPZ3) | inactive: -0.006 | inactive: 0.032 | inactive: -0.145 | inactive: 0.028 | inactive: -0.223 | inactive: 0.063 | inactive: -0.008 | inactive: 0.062 | inactive: 0.073 | inactive: -0.216
17 | PAFAH1B3 (UniProt Q15102) | inactive: 0.028 | inactive: 0.091 | inactive: 0.029 | inactive: 0.017 | inactive: 0.148 | inactive: -0.038 | inactive: 0.085 | inactive: 0.061 | inactive: -0.058 | inactive: 0.032
18 | PCYT1B (UniProt Q9Y5K3) | inactive: 0.05 | inactive: 0.068 | inactive: -0.043 | inactive: 0.023 | inactive: 0.078 | inactive: 0.079 | inactive: -0.066 | inactive: 0.004 | inactive: 0.01 | inactive: -0.003
19 | PDCL (UniProt Q13371) | inactive: 0.048 | inactive: 0.033 | inactive: 0.011 | inactive: 0.008 | inactive: -0.085 | inactive: 0.107 | inactive: 0.018 | inactive: -0.002 | inactive: 0.012 | inactive: -0.014
20 | PDPR (UniProt Q8NCN5) | inactive: 0.042 | inactive: 0.043 | inactive: 0.06 | inactive: 0.004 | inactive: 0.014 | inactive: -0.027 | inactive: -0.128 | inactive: 0.013 | inactive: -0.029 | inactive: 0.02
21 | PANK4 (UniProt Q9NVE7) | inactive: -0.031 | inactive: -0.033 | inactive: 0.048 | inactive: -0.017 | inactive: 0.097 | inactive: 0.064 | inactive: -0.003 | inactive: 0.006 | inactive: -0.044 | inactive: -0.037
22 | PCYT2 isoform 3 (UniProt Q99447) | inactive: -0.019 | inactive: -0.022 | inactive: 0.07 | inactive: 0.004 | inactive: -0.012 | inactive: 0.008 | inactive: -0.023 | inactive: 0.017 | inactive: -0.023 | inactive: 0.075
23 | PDCL3 (UniProt Q9H2J4) | inactive: -0.017 | inactive: 0 | inactive: 0.065 | inactive: -0.034 | inactive: -0.016 | inactive: 0.039 | inactive: -0.025 | inactive: 0.022 | inactive: 0.003 | inactive: 0.026
24 | PARP1 (UniProt P09874) | inactive: 0.076 | inactive: 0.135 | inactive: 0.042 | inactive: -0.005 | inactive: 0.098 | inactive: -0.042 | inactive: 0.137 | inactive: 0.35 | inactive: -0.078 | inactive: -0.042
25 | PDIK1L (UniProt Q8N165) | inactive: -0.075 | inactive: 0.083 | inactive: -0.031 | inactive: -0.052 | inactive: 0.034 | inactive: 0.115 | inactive: -0.034 | inactive: 0.197 | inactive: 0.023 | inactive: -0.007
26 | PCIF1 (UniProt Q9H4Z3) | inactive: 0.171 | inactive: 0.251 | inactive: 0.071 | inactive: 0.008 | inactive: 0.09 | inactive: 0.027 | inactive: -0.08 | inactive: 0.036 | inactive: -0.168 | inactive: -0.035
27 | PAGR1 (UniProt Q9BTK6) | inactive: 0.004 | inactive: -0.015 | inactive: 0.047 | inactive: -0.04 | inactive: 0.01 | inactive: 0.103 | inactive: -0.108 | inactive: 0.062 | inactive: -0.044 | inactive: -0.031
28 | PDLIM7 (UniProt Q9NR12) | inactive: 0.013 | inactive: 0.039 | inactive: 0.1 | inactive: -0.037 | inactive: -0.01 | inactive: 0.002 | inactive: 0.073 | inactive: 0.016 | inactive: -0.01 | inactive: 0.133
29 | PDS5B (UniProt Q9NTI5) | inactive: -0.023 | inactive: 0.002 | inactive: 0.001 | inactive: 0.043 | inactive: 0.092 | inactive: 0.12 | inactive: 0.061 | inactive: 0.013 | inactive: -0.302 | inactive: -0.287
30 | PDE2A (UniProt O00408) | inactive: -0.055 | active: -0.521 | inactive: -0.011 | inactive: -0.034 | inactive: 0.161 | inactive: -0.099 | inactive: 0.137 | inactive: 0.113 | inactive: -0.077 | inactive: 0.184

Another view of part of the listing above.
Row	Target	log2 fold change (erlotinib)	log2 fold change [1]	log2 fold change [2]	log2 fold change [3]	log2 fold change [4]	log2 fold change [5]	log2 fold change [6]	log2 fold change [7]	log2 fold change [8]	log2 fold change [9]
27	PAGR1 (UniProt Q9BTK6)	inactive: 0.004	inactive: -0.015	inactive: 0.047	inactive: -0.04	inactive: 0.01	inactive: 0.103	inactive: -0.108	inactive: 0.062	inactive: -0.044	inactive: -0.031
28	PDLIM7 (UniProt Q9NR12)	inactive: 0.013	inactive: 0.039	inactive: 0.1	inactive: -0.037	inactive: -0.01	inactive: 0.002	inactive: 0.073	inactive: 0.016	inactive: -0.01	inactive: 0.133

Reference: the supplement of paper PMC10849652
